# Data from article PMC7457484.
# Protein sequences, listed by entry. Tags and fused reporters are not part of them.
# UniProt O95071: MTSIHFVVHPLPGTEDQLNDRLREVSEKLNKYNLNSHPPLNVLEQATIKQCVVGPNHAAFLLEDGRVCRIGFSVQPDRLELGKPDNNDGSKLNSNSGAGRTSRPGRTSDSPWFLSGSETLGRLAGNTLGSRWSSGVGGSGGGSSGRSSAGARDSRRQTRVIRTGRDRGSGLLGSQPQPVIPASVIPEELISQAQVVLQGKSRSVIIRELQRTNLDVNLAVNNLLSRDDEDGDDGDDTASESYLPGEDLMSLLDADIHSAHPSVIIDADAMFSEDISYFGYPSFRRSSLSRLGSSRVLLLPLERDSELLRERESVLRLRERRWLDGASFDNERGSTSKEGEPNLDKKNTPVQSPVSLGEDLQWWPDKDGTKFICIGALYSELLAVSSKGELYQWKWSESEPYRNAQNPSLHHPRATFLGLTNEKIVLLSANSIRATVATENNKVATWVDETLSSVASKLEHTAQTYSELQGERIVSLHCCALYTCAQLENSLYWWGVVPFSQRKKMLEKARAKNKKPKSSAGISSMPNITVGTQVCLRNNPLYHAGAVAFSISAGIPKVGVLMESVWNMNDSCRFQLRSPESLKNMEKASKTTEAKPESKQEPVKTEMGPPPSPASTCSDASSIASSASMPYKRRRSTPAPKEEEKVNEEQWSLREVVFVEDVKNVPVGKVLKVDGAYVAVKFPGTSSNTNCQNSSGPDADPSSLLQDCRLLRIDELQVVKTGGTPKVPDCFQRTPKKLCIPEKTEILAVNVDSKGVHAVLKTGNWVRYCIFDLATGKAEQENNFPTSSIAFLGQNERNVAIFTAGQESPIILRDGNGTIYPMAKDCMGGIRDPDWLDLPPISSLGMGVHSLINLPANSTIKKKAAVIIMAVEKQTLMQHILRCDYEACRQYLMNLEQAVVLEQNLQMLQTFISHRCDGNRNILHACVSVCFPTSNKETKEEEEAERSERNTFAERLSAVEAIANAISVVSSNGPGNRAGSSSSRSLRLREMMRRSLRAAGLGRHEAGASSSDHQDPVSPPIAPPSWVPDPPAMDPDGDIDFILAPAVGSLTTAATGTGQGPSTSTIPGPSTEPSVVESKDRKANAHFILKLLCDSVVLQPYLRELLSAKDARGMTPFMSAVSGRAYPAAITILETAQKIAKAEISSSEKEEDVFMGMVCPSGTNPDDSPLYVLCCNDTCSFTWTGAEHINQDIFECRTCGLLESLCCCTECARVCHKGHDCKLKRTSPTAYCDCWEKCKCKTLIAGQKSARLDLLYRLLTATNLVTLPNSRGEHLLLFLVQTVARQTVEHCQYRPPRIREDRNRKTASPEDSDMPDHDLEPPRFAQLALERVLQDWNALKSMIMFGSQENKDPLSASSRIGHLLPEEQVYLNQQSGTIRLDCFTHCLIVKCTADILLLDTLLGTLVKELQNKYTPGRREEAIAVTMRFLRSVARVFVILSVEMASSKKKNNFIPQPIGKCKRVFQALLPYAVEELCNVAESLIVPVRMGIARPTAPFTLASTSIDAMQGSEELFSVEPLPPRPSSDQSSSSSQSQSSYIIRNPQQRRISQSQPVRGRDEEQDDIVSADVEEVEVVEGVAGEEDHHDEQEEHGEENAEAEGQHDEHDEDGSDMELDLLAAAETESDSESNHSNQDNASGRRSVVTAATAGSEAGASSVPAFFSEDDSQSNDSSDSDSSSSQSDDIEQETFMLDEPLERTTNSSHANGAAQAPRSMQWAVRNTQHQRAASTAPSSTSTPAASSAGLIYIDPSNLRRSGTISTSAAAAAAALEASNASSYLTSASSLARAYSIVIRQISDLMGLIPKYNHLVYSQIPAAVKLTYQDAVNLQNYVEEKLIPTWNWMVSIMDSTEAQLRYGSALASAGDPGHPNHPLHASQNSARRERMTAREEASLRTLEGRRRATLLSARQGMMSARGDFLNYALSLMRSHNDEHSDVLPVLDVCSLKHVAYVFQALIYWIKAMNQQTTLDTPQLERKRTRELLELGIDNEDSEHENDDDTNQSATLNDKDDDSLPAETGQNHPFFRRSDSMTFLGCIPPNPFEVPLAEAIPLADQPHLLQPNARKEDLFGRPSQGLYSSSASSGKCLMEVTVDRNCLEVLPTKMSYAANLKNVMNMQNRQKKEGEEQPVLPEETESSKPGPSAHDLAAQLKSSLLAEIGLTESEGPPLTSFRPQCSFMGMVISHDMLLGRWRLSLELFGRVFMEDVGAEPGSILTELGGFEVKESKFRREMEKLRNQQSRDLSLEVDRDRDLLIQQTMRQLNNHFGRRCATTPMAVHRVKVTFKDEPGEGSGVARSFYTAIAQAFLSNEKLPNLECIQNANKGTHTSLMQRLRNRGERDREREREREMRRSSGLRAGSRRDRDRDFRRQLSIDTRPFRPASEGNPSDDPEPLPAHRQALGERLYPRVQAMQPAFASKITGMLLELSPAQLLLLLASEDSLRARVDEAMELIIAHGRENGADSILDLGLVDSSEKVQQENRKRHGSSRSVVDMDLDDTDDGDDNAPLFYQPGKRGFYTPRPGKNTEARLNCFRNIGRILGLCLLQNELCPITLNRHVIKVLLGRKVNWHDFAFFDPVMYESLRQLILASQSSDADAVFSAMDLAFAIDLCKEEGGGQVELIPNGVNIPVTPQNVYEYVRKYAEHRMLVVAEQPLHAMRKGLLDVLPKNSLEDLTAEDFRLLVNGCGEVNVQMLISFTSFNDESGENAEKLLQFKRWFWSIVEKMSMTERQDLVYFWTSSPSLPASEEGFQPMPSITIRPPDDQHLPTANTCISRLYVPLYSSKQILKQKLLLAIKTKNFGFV
# UniProt Q92616: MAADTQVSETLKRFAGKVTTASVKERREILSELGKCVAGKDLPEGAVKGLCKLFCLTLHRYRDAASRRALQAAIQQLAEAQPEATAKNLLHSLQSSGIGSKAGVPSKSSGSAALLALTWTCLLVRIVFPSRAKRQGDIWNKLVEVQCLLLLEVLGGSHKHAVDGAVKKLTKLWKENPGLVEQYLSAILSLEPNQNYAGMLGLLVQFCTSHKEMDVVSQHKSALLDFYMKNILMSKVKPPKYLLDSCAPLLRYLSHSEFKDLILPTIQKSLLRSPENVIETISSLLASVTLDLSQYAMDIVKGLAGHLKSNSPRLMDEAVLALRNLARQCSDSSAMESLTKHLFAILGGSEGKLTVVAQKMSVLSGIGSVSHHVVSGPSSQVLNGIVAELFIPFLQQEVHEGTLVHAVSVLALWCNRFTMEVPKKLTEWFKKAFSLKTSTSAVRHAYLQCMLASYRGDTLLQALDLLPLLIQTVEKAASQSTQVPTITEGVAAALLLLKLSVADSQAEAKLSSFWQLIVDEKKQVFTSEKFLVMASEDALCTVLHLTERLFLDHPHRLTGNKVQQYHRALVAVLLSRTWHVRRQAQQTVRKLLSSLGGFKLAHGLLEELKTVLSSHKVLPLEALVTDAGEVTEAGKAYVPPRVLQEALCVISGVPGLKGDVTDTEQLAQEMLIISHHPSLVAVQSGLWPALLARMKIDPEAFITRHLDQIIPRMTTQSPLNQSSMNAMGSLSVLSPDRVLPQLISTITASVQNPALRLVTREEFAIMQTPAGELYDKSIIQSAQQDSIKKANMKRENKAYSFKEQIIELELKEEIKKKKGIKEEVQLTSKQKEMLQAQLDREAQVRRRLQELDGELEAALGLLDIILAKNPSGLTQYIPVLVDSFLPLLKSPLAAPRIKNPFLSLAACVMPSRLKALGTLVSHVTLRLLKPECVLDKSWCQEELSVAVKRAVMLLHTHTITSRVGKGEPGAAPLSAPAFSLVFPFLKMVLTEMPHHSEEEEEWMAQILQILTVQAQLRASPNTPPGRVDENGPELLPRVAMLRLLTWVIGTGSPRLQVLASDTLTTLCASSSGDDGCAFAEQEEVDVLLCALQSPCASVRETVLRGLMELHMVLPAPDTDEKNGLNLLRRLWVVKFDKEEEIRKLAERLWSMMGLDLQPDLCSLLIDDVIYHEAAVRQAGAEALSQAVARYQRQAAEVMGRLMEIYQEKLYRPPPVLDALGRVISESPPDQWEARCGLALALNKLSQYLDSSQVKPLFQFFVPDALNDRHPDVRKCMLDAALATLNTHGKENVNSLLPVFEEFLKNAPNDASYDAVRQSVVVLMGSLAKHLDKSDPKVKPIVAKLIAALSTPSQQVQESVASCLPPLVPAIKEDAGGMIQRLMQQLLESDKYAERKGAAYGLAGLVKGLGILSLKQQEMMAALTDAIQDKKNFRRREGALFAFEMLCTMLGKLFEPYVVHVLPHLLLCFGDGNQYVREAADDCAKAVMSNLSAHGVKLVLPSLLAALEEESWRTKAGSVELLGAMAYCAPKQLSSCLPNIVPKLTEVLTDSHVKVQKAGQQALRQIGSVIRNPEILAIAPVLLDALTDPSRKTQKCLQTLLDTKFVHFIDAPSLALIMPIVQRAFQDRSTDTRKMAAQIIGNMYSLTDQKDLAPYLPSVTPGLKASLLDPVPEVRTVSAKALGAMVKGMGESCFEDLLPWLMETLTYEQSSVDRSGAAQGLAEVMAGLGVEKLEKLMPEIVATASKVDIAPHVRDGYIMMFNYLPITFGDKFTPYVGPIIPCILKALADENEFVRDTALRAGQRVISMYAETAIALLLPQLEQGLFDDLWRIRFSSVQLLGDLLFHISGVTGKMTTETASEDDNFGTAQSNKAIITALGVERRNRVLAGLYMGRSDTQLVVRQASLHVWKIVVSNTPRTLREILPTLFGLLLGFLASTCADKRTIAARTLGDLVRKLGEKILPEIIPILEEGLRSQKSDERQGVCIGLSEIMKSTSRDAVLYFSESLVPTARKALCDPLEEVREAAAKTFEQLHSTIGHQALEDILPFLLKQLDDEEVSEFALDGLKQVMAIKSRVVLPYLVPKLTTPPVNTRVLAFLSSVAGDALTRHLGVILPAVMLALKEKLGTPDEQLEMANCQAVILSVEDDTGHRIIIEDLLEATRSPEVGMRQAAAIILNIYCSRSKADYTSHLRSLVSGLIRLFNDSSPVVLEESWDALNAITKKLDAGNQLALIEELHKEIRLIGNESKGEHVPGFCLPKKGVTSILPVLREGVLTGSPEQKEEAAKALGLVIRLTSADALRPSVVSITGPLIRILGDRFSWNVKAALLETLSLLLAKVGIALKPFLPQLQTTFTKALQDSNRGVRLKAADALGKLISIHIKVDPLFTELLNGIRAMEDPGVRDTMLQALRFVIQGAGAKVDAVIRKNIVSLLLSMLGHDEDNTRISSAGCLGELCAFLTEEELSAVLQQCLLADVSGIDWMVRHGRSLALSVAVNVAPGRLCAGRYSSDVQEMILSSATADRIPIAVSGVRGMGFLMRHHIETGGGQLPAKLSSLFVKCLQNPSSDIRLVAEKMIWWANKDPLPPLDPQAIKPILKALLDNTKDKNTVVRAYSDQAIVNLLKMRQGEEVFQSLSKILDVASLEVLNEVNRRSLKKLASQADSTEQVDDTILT
# No constants are given. Whether binding was seen depends on the method and setting. Binding seen in cells or lysates may run through a third protein. Some results given as binding are weak or reduced against the parent protein; the word gives no strength.
# Biological target: FLAG-tagged UBR5 (human) (UniProt O95071)
# Assay: co-IP; HEK293T transiently transfected with FLAG-tagged UBR5; IP with anti-FLAG beads; Western blot for endogenous partners
row,binding,Substance
1,binds,DNA-dependent protein kinase (from UniProt P78527 1-4128)
2,binds,GCN1L1 (from UniProt Q92616 1-2671)
3,binds,Raptor (from UniProt Q8N122 1-1335)
